{"sequences": {"note": "Sequences of proteins named here, by UniProt entry; tags and fusion partners are left off. Residues count along the entry.", "UniProt P02769, residues 25-607": "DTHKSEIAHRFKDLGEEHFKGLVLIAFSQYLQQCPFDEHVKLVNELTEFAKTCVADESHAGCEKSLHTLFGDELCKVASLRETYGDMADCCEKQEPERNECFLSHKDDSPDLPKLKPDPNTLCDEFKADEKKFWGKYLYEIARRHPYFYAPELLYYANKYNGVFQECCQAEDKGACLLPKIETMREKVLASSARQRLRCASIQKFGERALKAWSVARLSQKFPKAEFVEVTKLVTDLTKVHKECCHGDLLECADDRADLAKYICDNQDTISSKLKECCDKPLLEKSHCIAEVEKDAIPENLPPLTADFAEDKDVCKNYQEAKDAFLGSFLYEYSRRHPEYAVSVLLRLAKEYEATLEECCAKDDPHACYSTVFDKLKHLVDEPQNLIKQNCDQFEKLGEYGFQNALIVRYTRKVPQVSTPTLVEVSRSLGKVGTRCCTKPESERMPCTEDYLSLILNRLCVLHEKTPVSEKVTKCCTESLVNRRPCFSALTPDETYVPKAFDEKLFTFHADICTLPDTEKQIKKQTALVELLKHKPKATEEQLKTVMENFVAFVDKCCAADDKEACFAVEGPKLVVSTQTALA", "UniProt P98158, residues 26-4660": "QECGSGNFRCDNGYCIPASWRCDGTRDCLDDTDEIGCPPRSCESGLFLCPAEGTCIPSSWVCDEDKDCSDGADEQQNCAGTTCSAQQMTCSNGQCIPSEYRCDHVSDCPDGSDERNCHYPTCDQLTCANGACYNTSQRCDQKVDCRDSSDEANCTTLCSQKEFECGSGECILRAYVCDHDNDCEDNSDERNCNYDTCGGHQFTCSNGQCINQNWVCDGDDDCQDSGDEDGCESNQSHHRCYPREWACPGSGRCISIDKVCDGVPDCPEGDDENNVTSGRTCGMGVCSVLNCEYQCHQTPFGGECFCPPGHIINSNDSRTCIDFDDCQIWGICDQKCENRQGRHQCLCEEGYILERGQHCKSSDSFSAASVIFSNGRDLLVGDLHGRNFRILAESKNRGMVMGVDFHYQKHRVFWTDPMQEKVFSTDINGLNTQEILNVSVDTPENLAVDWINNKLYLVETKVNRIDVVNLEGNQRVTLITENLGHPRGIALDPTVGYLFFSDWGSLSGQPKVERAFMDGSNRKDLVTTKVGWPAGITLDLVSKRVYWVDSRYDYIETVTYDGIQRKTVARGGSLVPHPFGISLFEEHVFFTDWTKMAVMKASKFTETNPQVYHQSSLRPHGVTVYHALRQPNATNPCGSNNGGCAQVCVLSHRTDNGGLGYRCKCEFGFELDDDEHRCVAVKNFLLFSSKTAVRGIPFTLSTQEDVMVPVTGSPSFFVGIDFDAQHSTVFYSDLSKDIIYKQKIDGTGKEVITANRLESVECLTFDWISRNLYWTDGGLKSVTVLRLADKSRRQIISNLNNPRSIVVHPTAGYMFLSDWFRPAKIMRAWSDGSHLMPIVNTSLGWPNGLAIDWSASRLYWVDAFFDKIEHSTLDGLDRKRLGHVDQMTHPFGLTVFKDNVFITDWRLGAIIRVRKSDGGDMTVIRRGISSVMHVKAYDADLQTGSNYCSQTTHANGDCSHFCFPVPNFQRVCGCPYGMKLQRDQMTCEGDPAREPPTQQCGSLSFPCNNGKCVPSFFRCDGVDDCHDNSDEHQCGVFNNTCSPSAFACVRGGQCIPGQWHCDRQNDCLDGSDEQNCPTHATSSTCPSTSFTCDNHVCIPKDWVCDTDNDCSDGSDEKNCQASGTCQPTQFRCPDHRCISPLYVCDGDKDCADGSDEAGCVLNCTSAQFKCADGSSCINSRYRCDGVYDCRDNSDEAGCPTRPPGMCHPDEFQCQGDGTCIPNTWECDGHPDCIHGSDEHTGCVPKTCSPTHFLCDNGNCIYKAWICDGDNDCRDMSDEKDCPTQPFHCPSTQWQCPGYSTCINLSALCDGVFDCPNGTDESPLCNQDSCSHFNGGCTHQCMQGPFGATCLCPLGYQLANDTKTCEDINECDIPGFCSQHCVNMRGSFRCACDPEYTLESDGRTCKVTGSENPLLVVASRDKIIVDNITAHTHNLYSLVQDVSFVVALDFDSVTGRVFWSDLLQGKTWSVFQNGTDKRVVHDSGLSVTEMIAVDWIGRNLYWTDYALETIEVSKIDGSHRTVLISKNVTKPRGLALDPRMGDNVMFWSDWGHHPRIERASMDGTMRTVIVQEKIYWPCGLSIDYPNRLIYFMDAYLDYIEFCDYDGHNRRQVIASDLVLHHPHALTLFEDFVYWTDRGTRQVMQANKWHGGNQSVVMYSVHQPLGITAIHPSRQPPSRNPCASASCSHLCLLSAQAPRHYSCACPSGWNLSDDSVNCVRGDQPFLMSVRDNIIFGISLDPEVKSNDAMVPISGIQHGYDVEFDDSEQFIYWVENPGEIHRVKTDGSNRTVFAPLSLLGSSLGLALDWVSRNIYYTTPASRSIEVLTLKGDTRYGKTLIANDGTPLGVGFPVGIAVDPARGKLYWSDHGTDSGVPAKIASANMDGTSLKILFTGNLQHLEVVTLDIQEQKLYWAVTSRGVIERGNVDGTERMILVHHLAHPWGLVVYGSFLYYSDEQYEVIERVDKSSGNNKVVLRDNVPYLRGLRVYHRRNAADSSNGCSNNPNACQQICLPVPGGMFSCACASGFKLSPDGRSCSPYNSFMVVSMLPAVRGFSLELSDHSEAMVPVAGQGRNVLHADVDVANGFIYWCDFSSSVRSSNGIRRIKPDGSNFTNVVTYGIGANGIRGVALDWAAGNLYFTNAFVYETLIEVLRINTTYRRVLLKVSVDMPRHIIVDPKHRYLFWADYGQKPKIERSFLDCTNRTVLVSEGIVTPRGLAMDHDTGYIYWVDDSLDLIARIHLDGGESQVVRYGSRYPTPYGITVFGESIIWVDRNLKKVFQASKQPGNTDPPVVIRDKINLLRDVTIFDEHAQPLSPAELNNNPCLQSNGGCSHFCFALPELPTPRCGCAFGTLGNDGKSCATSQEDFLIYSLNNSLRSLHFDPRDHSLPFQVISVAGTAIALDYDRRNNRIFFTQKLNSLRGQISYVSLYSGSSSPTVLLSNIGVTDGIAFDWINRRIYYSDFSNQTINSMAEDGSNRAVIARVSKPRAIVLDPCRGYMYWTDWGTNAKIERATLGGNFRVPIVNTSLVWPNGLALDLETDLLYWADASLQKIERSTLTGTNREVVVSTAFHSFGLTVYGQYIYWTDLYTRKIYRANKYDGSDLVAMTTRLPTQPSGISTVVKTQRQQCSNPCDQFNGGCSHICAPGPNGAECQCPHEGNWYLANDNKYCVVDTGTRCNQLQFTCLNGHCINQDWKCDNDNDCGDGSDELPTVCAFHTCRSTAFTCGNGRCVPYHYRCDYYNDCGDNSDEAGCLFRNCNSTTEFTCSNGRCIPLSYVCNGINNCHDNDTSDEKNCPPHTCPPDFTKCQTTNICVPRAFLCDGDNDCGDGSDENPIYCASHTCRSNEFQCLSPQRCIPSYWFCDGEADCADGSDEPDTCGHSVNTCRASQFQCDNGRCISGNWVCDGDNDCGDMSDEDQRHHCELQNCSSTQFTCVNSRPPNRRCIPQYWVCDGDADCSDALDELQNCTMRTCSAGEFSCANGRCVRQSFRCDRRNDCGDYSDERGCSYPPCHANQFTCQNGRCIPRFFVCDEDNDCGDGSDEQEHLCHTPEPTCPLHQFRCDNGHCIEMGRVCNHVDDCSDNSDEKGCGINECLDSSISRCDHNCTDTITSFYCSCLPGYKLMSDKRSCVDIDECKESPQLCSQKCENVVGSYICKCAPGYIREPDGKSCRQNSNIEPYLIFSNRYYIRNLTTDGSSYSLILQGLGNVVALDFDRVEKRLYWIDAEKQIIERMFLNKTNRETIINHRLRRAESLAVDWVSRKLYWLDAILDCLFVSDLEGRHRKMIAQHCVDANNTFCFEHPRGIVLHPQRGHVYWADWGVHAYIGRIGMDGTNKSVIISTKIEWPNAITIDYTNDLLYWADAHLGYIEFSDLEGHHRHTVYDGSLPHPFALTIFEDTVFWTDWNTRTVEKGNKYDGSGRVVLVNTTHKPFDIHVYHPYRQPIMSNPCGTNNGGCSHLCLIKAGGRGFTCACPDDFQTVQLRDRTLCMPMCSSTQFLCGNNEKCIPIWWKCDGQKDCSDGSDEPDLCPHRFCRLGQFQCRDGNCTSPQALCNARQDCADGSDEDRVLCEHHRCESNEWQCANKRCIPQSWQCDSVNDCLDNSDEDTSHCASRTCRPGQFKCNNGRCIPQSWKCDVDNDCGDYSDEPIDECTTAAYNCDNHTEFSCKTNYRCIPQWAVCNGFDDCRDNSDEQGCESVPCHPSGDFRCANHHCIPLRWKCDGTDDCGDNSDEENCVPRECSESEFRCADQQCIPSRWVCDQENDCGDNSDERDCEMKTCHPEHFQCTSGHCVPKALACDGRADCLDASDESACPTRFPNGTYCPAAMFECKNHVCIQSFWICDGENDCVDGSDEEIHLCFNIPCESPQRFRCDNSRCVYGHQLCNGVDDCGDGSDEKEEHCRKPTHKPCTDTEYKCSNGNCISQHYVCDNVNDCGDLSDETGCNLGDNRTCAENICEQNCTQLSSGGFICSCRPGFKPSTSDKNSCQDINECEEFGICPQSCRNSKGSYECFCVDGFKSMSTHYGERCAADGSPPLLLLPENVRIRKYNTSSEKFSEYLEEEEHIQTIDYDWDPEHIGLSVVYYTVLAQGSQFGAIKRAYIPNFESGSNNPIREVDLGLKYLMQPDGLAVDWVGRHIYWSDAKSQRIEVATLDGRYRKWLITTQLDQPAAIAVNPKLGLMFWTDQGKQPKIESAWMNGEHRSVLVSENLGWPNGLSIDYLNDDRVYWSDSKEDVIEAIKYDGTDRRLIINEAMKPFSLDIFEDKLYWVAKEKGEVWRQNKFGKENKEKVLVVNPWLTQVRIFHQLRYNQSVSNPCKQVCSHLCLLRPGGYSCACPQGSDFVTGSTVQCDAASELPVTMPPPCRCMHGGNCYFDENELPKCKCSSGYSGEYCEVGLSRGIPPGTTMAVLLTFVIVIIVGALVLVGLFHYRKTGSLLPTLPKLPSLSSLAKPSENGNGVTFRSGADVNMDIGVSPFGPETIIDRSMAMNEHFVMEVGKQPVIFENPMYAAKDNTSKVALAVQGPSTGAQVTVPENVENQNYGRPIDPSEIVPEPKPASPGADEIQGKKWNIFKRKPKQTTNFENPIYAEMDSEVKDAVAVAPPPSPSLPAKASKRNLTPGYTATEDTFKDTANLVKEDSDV", "UniProt P15090": "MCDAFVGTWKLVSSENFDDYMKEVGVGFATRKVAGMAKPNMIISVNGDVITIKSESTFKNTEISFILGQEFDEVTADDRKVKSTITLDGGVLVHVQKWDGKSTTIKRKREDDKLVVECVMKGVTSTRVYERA"}, "source": "paper PMC6219568", "key": {"[1]": {"molecular_target": "FA-free BSA (bovine) (UniProt P02769)", "test": "quartz-crystal microbalance (QCM); 27 MHz QCM (Affinix Q8); megalin (10 mg/mL in 10 mM HEPES pH 7.4, 150 mM NaCl, 2 mM CaCl2) or FA-free BSA immobilised on the sensor chips; FABP4 (1 mg/mL) injected into the chamber; binding read as change in frequency; both purified"}, "[2]": {"molecular_target": "rat megalin (rat) (UniProt P98158)", "test": "quartz-crystal microbalance (QCM); 27 MHz QCM (Affinix Q8); megalin (10 mg/mL in 10 mM HEPES pH 7.4, 150 mM NaCl, 2 mM CaCl2) or FA-free BSA immobilised on the sensor chips; FABP4 (1 mg/mL) injected into the chamber; binding read as change in frequency; both purified"}}, "note": "Results are given in words; binding and its absence hold for the method and conditions named. Some entries that bind do so weakly or less than the wild type.", "data": [{"substance": "Fatty acid binding protein 4 (recombinant human FABP4) (from UniProt P15090 1-132)", "values": [{"measurement": "binding", "setting": "[1]", "value": "no binding (tested: 1 mg/ml)"}, {"measurement": "binding", "setting": "[2]", "value": "binds"}]}]}
